Reference: US20220133842A1 (priority 2019, published 2022)
Some results were stated once for a whole list of compounds, not compound by compound.

Experiments:
Type in all cases: cell-based
[1] = system: all other Clostridium strains tested (other than Clostridium perfringens)
[2] = system: Clostridium perfringens strain (ATCC 13124) and clinical strains of Clostridium perfringens
[3] = system: Clostridium perfringens (ATCC 13124)

Destruxin A
MIC [1]: > 100 µM
MIC/BMC [2]: 0.75 to 3 µM

Enniatin A1
permeabilisation of the bacterial membrane [3]: 50-60%

Nisin
permeabilisation of the bacterial membrane [3]: 50-60%
